The record followed here is US6469168B1, “Piperazinylalkylthiopyrimidine derivatives, pharmaceutical compositions containing the same, and a process for the preparation of the active substance” (EGIS Gyógyszergyár Rt., priority 1999, dated 2002).

This data set relates to male NMRI mice. Briefly: Determination of the spontaneous motor activity. The settings on record: p.o., 60 minutes prior to the test, dose producing 50% of inhibition of motor activity. As for the experimental part:
2. Determination of the Spontaneous Motor Activity
For the experiments, male NMRI mice weighing 20 to 25 g were used. Each treatment group consisted of 10 mice. The substance to be examined or the vehicle (i.e. a 0.4% solution of methylcellulose) was administered to the animals in a volume of 20 ml/kg as a suspension per os 60 minutes prior to the test. […] In case of anxiolytics, the value of the anxiolytic effect depends on the presence or absence of the sedative action (the latter is […]). For the experiments, an apparatus “digital motimeter” having 10 measuring places was used. The motion of the animals was indicated by the interruption of three parallel beams of infrared light at each measuring place, and the interruptions were recorded by the apparatus. The activity of one animal was determined at each measuring place. […] Int.

Compound `CN1C(=O)CN=C(c2ccccc2)c2cc(Cl)ccc21` [diazepam, 7-chloro-1,3-dihydro-1-methyl-5-phenyl-2H-1,4-benzodiazepine-2-one, reference compound] gave an ID50 of 6.9 mg/kg.
